## Percent effect of library compounds

Measurements from “University of Dundee, Small-Polar-MMV Screening Library” (2021), ChEMBL document CHEMBL3988442.

Values are the deposited “Percent Effect”, in %. The controls that fix the scale are not given in the record; negative values are as filed. The compounds are a random part of those screened.

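Whole-parasite assay of Trypanosoma brucei over 72 hours; the read-out is not stated. Tested at 30 µM. Higher reads as stronger inhibition (inferred: compounds with an IC50 in retests scored well above the rest). Values scatter widely below zero; nearly all retest evidence comes from the higher of the two concentrations used. About 64,000 compounds were tested under these conditions; 1.5% (about 940) showed 50% or more at least once.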

| SMILES | Percent Effect |
|---|---|
| `Fc1ccccc1-c1nc(CNCCn2cccn2)cs1` | -11.03 |
| `[H][C@@]12C[C@@H](O)C[C@]1([H])CN(Cc1cc(C(C)(C)C)ccc1OCC(N)=O)C2` | -10.55 |
| `O=C(O)C(F)(F)F.[H][C@@]12CCN(C3CCCCC3)[C@]1([H])CC[C@H](C(=O)N1CCOCC1)O2` | 2.517 |
| `CN(C)C(=O)N1CCC(c2nc3ccc(N4CCCC4)cn3n2)CC1.O=C(O)C(F)(F)F` | -7.391 |
| `Cc1ccc(N2CCCc3sc(C(=O)NCc4ccc(C)o4)nc32)nn1` | -18.54 |
| `CCC(CNC(=O)Nc1cnn(CC)c1)N1CCCC1` (stereo not given) | -48.15 |
| `CC(=O)N1CC=C(n2c(=O)[nH]c3ccccc32)CC1` | 2.204 |
| `CC(O)(CNc1ccccn1)c1ccccc1` (stereo not given) | -22.03 |
| `COCCNC(=O)c1ccc2c(=O)n3c(nc2c1)CCCCCC3` | -13.53 |
| `CC1(C)CNC(=O)c2nc(C3CCCN(C(=O)C4CC4)C3)[nH]c2C1` (stereo not given) | 21.57 |
| `CNc1nc(C(=O)N2CCCC(COc3ccc(F)cc3)C2)cs1` (stereo not given) | -8.042 |
| `CSCCCN(CCN1CCOCC1)Cc1ccco1` | -19.63 |
| `CCn1cc2c(n1)C(COCC1CC1)CN(C(=O)c1cc(C)on1)C2` (stereo not given) | -52.08 |
| `CC[C@@H](C)[C@H](NC(=O)NC1CCS(=O)(=O)C1)C(=O)NCc1ccncc1` (stereo not given in full) | -21.8 |
| `CN(c1ncccc1CNC(=O)c1csnn1)C1CCCCC1` | -38.77 |
| `COc1ccc(CNCC2CN(C3CC3)CCO2)cc1C` (stereo not given) | -7.871 |
| `O=C1CC2(CCN(Cc3ccc(-c4ccn[nH]4)s3)CC2)CN1` | -94.76 |
| `CCN(C(=O)c1ccc2c(c1)OCO2)C1CC(=O)NC1=O` (stereo not given) | -15.08 |
| `Cc1n[nH]c2ncc(CNC3CCCN(c4ncccn4)C3)cc12.Cl` (stereo not given) | 72.79 |
| `Cc1nnc2n1CCN(C(=O)c1cc(C)n(-c3cccnc3)c1C)C2` | 16.32 |
| `CCOC(=O)c1ccc(Nc2ccc(OC)c(N3CCCC3=O)c2)nc1` | 25.7 |
| `CC(CC#N)N(C)Cc1ccccc1Cl` (stereo not given) | -20.24 |
| `O=C(O)C(F)(F)F.[H][C@@]12OCCN(Cc3ccco3)[C@@]1([H])CC[C@@H]2OCC1CC1` | -12.22 |
| `Cc1cc(Cl)cc(C)c1CNC1CCN(CC(=O)N(C)C)CC1` | -23.16 |
| `O=C(CN1CCC(c2cc(=O)n3c(n2)CCCCC3)CC1)N1CCCC1` | -20.03 |
| `CCC[C@H]1CN(c2cncc(C(=O)N3CCCCC3)n2)C[C@@H]1N(C)C` | -78.43 |
| `O=C1CC(c2ccc(CO)o2)c2cnn(Cc3ccco3)c2N1` (stereo not given) | 10.71 |
| `CNS(=O)(=O)CC(=O)NC(C)Cc1ccc(Br)cc1` (stereo not given) | -11.43 |
| `CNc1cc(C)nc(-c2cc(NC)nc3[nH]ccc23)n1` | -26.23 |
| `Cc1c(Cn2cc(Cl)c(N)n2)cnn1C` | 4.094 |
| `O=C(O)C(F)(F)F.O=C(O)C(F)(F)F.O=C(O)C(F)(F)F.[H][C@@]12CO[C@@H](CN3CCN(C)CC3)[C@]1([H])CCN(Cc1cccc(F)c1)C2` | -27.96 |
| `Cn1cnc(S(=O)(=O)N2CCCn3cnc(CN4CCCC4)c3C2)c1` | -17.21 |
| `CC(C)NC(=O)N1Cc2nccn2CC(COc2cccnc2)C1.O=C(O)C(F)(F)F` (stereo not given) | -14.15 |
| `COCC1CN(C(=O)c2cccn2C)Cc2nccn2C1` (stereo not given) | -8.175 |
| `CC(=O)N1CCOCC(Cc2ccc3c(ccn3C(C)=O)c2)C1` (stereo not given) | 14.29 |
| `COc1cccc(OCC(=O)Nc2cc(C)cnc2OC)c1` | -42.96 |
| `CC(C)N(CCSc1ncnc2[nH]ncc12)C(C)C` | 22.79 |
| `CC1(C)CN(CC(F)(F)F)CCN1CC(=O)NC1CCCC1` | -1.015 |
| `Cc1nn(C)c(C)c1C(C)NC(=O)Nc1cccnc1N1CCCC1` (stereo not given) | -35.38 |
| `O=C(O)CCCN1C[C@@H](c2ccccc2F)[C@@]2(CCCCC(=O)N2)C1` | 11.87 |
| `O=C(O)C(F)(F)F.O=C(O)C(F)(F)F.[H][C@@]12C[C@@H](Oc3cncnc3)CN1CCN(Cc1nccn1C)C2` | -15.29 |
| `CC(C)Nc1nc(-c2ccccc2)nc2c1CCN(C(=O)CC#N)CC2` | -68.23 |
| `[H][C@@]12CN(C(=O)C3CCOCC3)C[C@]1([H])OCCN2CCN(C)C` | -39.27 |
| `O=C(Nc1cccnc1)C1=Cc2ccccc2OC1` | -24.77 |
| `[H][C@@]12COC[C@@H](C(=O)N3CCOCC3)[C@]1([H])CN(C1CCCCC1)C2` | -26.17 |
| `Cc1cnn(CC2CN(c3ncnc4ccsc34)CCO2)c1` (stereo not given) | 10.63 |

Repeated from the top, 3 entries:

SMILES,Percent Effect
Fc1ccccc1-c1nc(CNCCn2cccn2)cs1,-11.03
[H][C@@]12C[C@@H](O)C[C@]1([H])CN(Cc1cc(C(C)(C)C)ccc1OCC(N)=O)C2,-10.55
O=C(O)C(F)(F)F.[H][C@@]12CCN(C3CCCCC3)[C@]1([H])CC[C@H](C(=O)N1CCOCC1)O2,2.517